Measured values taken from PMC10229567.

Protein sequences, listed by entry. Tags and fused reporters are not part of them. Lines headed by an entry give the natural chain unless they say otherwise; changes in a name come on top.
UniProt Q02127: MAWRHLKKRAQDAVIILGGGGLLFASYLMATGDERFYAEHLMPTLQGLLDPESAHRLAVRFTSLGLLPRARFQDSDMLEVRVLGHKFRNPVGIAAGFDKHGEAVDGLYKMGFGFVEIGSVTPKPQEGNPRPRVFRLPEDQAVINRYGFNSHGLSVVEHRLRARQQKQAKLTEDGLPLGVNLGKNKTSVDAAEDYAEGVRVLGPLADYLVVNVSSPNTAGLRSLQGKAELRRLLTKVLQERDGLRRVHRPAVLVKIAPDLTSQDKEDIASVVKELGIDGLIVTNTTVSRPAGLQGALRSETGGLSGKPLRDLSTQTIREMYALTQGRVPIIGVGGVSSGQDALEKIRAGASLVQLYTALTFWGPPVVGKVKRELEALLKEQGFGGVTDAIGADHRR
UniProt Q15388: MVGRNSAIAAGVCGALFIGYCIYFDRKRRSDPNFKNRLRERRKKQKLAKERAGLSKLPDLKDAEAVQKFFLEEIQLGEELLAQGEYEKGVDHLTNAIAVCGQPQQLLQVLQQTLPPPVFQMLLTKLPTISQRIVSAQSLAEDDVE
UniProt P58215: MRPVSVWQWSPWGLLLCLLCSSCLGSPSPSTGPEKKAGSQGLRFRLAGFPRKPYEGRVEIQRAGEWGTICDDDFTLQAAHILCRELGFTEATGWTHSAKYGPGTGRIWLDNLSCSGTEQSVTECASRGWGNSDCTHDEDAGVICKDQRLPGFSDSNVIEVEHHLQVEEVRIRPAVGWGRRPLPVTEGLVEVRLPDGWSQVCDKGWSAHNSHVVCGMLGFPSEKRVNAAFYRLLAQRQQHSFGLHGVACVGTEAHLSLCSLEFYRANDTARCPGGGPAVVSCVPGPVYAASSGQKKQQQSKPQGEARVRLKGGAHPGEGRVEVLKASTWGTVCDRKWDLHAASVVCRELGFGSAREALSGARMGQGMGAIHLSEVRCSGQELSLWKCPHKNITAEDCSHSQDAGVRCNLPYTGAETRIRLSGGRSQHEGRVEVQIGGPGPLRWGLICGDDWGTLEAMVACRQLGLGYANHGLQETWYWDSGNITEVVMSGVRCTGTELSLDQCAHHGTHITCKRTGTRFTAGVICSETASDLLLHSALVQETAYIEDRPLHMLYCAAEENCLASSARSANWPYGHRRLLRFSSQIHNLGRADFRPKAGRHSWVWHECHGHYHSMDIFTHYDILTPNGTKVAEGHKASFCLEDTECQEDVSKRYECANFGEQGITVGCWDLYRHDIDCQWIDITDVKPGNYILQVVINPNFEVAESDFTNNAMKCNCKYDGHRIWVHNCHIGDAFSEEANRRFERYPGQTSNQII

Assays:
[1] = target: Dihydroorotate dehydrogenase (DHODH) (human (endogenous in Huh7)) (UniProt Q02127); experiment: co-IP; Huh7 cells expressing WT, S704A or S704D LOXL3-FLAG, treated with MG132 for 12 h
[2] = target: TOM20 (receptor of the translocase of the outer mitochondrial membrane complex) (human (endogenous in Huh7)) (UniProt Q15388); experiment: co-IP; Huh7 cells stably expressing WT, 1-40 deleted or K35/36A LOXL3-FLAG, starved for over 12 h and treated with EGF for half an hour

- binding [1]: binds
- binding [2]: binds
Substance: WT LOXL3-FLAG (from UniProt P58215)

No constants are given. Whether binding was seen depends on the method and setting. Binding seen in cells or lysates may run through a third protein. A result given as binding can be weak or reduced; the word gives no strength.
